The values that follow come from article PMC9986458.

The test system of data set [1] is TcbZIP60 (Tanacetum cinerariifolium). The data set is described as follows: EMSA. The conditions noted are these: 10 uM FAM probe, band decreased by 50x unlabeled probe; EMSA with 10 uM FAM-labeled probe and 50-fold excess unlabeled competitor; pH and temperature not given; recombinant protein. A general note: A gel shift assay detects complexes by their altered migration in electrophoresis.

Data set [2] shares this test system. The data set is described as follows: competition with a labelled probe. Particulars: shifted band recovered, EMSA with 10 uM FAM-labeled probe and 50-fold excess unlabeled competitor, pH and temperature not given, recombinant protein, label: none (unlabeled competitor).

The exact form of at least one protein or probe is not confirmed. For some of these results: Negatives hold for the conditions tested.

In the case of “CAACTAATCACACACCGCCACGTGTCCACCGTCCACCTACT (double strand) [Probe_proAOC]”, the binding result in data set [1] was “binds”.
Take “CAACTAATCACACACCGCTCTTCTTCCACCGTCCACCTACT (double strand) [mProbe_proAOC]”: the binding result in data set [2] (50x unlabeled mutant vs FAM-proAOC) is “no binding”.
Take “TTAAAAAGCAAAAAATGTAAAGTGCTAAGTGTTAAAAAAAAAATTATAT (double strand) [mProbe_proCHS]”: the binding result in data set [2] (50x unlabeled mutant vs FAM-proCHS) is reported as “no binding”.
In the case of “TTTGAAGGCAAGTGATGTAAAGTGCTAAGTGTTAAGTCAATGATTATAT (double strand) [Probe_proCHS]”, the binding result in data set [1] was “binds”.
